Results are given in words; binding and its absence hold for the method and conditions named. In cells and extracts the contact can be indirect. Some results given as binding are weak or reduced against the parent protein; the word gives no strength.
Target: T1, mouse β2-glycoprotein I (β2GPI, Apolipoprotein H) (mouse (endogenous in C57BL/6 plasma)) (UniProt Q01339)
T1 sequence: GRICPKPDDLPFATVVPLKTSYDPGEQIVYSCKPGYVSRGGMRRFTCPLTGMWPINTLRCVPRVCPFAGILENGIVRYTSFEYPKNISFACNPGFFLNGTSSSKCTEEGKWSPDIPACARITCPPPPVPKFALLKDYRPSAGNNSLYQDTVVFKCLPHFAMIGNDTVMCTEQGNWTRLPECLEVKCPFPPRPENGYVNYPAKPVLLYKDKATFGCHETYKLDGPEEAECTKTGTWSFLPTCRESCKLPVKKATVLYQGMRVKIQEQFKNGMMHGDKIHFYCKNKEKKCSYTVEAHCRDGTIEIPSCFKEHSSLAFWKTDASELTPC
Experiment: co-IP; mouse plasma (female WT; β2GPI KO as control) diluted 1:5 in PBS, pre-cleared with protein G-Sepharose; sheep anti-mouse β2GPI antibody 10 µg/ml, 14-16 h at 4 °C; blot for Apo E and β2GPI

- binding: binds
B1: mouse Apolipoprotein E (protein, UniProt P08226 19-311)
chain: EGEPEVTDQLEWQSNQPWEQALNRFWDYLRWVQTLSDQVQEELQSSQVTQELTALMEDTMTEVKAYKKELEEQLGPVAEETRARLGKEVQAAQARLGADMEDLRNRLGQYRNEVHTMLGQSTEEIRARLSTHLRKMRKRLMRDAEDLQKRLAVYKAGAREGAERGVSAIRERLGPLVEQGRQRTANLGAGAAQPLRDRAQAFGDRIRGRLEEVGNQARDRLEEVREHMEEVRSKMEEQTQQIRLQAEIFQARLKGWFEPIVEDMHRQWANLMEKIQASVATNPIITPVAQENQ

From paper PMC12535091
